PubChem BioAssay AID1259287, Sanger Institute – 2017

Test: 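Follow-up of selected drug and gene pairs in HCT15 cells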 (follow-up of hits)
Cell system: human HCT15 colorectal cancer cells
Reagent: single siRNA against human genes
Conditions: BYL719 1 µM, cetuximab 5 µg/ml or trametinib 10 nM, or DMSO vehicle
Measured: 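Cell survival relative to non-targeting pool 2 wells, averaged across replicates, with a synergy score for each drug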
Direction: synergy score with BYL719 and synergy score with cetuximab and synergy score with trametinib: higher = stronger combined killing than expected
Call rule: 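a hit if BYL719, cetuximab or trametinib yields synergy greater than 0.10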
Calls: active = synergy with at least one drug; inactive = no synergy with any drug
Shown is one part, drawn at random, of 160 deposited reagents. In the full data, 19 (12%) were called active. 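Viability seems capped at 1; calls apply to HCT15 cells only, not to validation across other lines.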 The numbers tell different reagents against one gene apart. Further read-outs or replicates are left out here. The record does not give: the amount of reagent, the time to read-out.

target gene,reagent no.,synergy score with BYL719,synergy score with cetuximab,synergy score with trametinib,Outcome
CAMK2N1 (calcium/calmodulin dependent protein kinase II inhibitor 1),1,-0.113,-0.187,-0.15,inactive
CAMK2N1 (calcium/calmodulin dependent protein kinase II inhibitor 1),2,0.184,-0.0934,-0.265,active
CAMK2N1 (calcium/calmodulin dependent protein kinase II inhibitor 1),3,-0.111,-0.113,-0.0131,inactive
CAMK2N1 (calcium/calmodulin dependent protein kinase II inhibitor 1),4,-0.0737,0.0501,0.0375,inactive
IRAK1 (interleukin 1 receptor associated kinase 1),1,0.0363,0.0381,0.405,active
IRAK1 (interleukin 1 receptor associated kinase 1),2,0.0782,-0.0172,0.026,inactive
IRAK1 (interleukin 1 receptor associated kinase 1),3,0.0579,0.0481,0.0848,inactive
IRAK1 (interleukin 1 receptor associated kinase 1),4,0.168,0.00419,-0.0666,active
MAPK4 (mitogen-activated protein kinase 4),1,-0.0663,-0.105,-0.179,inactive
MAPK4 (mitogen-activated protein kinase 4),2,-0.165,-0.296,-0.127,inactive
MAPK4 (mitogen-activated protein kinase 4),3,0.0317,0,-0.0126,inactive
MAPK4 (mitogen-activated protein kinase 4),4,-0.0395,0.0192,-0.137,inactive
HUNK (hormonally up-regulated Neu-associated kinase),1,0.162,-0.114,-0.0362,active
HUNK (hormonally up-regulated Neu-associated kinase),2,0.00387,-0.13,0.115,active
HUNK (hormonally up-regulated Neu-associated kinase),3,0.068,0.105,0.248,active
HUNK (hormonally up-regulated Neu-associated kinase),4,-0.00908,-0.0817,0.0248,inactive
HSPB8 (heat shock protein family B (small) member 8),1,-0.0651,-0.156,-0.116,inactive
HSPB8 (heat shock protein family B (small) member 8),2,-0.167,-0.0389,0.0243,inactive
HSPB8 (heat shock protein family B (small) member 8),3,-0.163,-0.134,-0.0477,inactive
HSPB8 (heat shock protein family B (small) member 8),4,0.0842,-0.0634,0.0781,inactive
"GUCY2D (guanylate cyclase 2D, retinal)",1,-0.0159,-0.0734,-0.0766,inactive
"GUCY2D (guanylate cyclase 2D, retinal)",2,-0.0833,-0.202,0.0612,inactive
"GUCY2D (guanylate cyclase 2D, retinal)",3,-0.191,-0.184,-0.0845,inactive
"GUCY2D (guanylate cyclase 2D, retinal)",4,-0.134,-0.0444,-0.0773,inactive
IKBKB (inhibitor of nuclear factor kappa B kinase subunit beta),1,-0.0853,0.0336,-0.213,inactive
IKBKB (inhibitor of nuclear factor kappa B kinase subunit beta),2,0.0238,0.0418,-0.0726,inactive
IKBKB (inhibitor of nuclear factor kappa B kinase subunit beta),3,-0.0753,-0.0659,-0.0975,inactive
IKBKB (inhibitor of nuclear factor kappa B kinase subunit beta),4,-0.16,-0.0793,-0.0702,inactive
CSNK2A2 (casein kinase 2 alpha 2),1,-0.168,-0.046,-0.0912,inactive
CSNK2A2 (casein kinase 2 alpha 2),2,-0.176,-0.115,-0.0615,inactive
CSNK2A2 (casein kinase 2 alpha 2),3,0.0151,-0.0961,-0.0503,inactive
CSNK2A2 (casein kinase 2 alpha 2),4,-0.148,-0.102,-0.0284,inactive
CDKN2D (cyclin dependent kinase inhibitor 2D),1,-0.104,-0.0182,-0.0565,inactive
CDKN2D (cyclin dependent kinase inhibitor 2D),2,-0.149,-0.0514,0.136,active
CDKN2D (cyclin dependent kinase inhibitor 2D),3,-0.0266,-0.0444,-0.101,inactive
CDKN2D (cyclin dependent kinase inhibitor 2D),4,0.00481,0.0231,-0.0296,inactive
IRAK3 (interleukin 1 receptor associated kinase 3),1,-0.154,-0.0504,-0.0223,inactive
IRAK3 (interleukin 1 receptor associated kinase 3),2,0.137,0.126,0.0531,active
IRAK3 (interleukin 1 receptor associated kinase 3),3,-0.152,-0.0897,-0.07,inactive
IRAK3 (interleukin 1 receptor associated kinase 3),4,-0.195,-0.0964,0.0567,inactive
MPP3 (MAGUK p55 scaffold protein 3),1,-0.0105,0.0138,0.042,inactive
MPP3 (MAGUK p55 scaffold protein 3),2,-0.0555,-0.113,-0.0385,inactive
MPP3 (MAGUK p55 scaffold protein 3),3,0.087,-0.0337,-0.0434,inactive
MPP3 (MAGUK p55 scaffold protein 3),4,-0.0609,-0.0345,0.0848,inactive
MAPKAPK2 (MAPK activated protein kinase 2),1,0.0128,-0.00162,-0.0804,inactive
MAPKAPK2 (MAPK activated protein kinase 2),2,-0.102,0.0189,-0.0664,inactive
MAPKAPK2 (MAPK activated protein kinase 2),3,0.000567,-0.0685,-0.0365,inactive
MAPKAPK2 (MAPK activated protein kinase 2),4,-0.202,-0.145,-0.152,inactive
SYNCRIP (synaptotagmin binding cytoplasmic RNA interacting protein),1,0.0255,-0.045,0.127,active
SYNCRIP (synaptotagmin binding cytoplasmic RNA interacting protein),2,-0.0352,-0.147,0.0176,inactive
SYNCRIP (synaptotagmin binding cytoplasmic RNA interacting protein),3,0.0287,-0.0831,0.00221,inactive
SYNCRIP (synaptotagmin binding cytoplasmic RNA interacting protein),4,-0.106,-0.203,-0.133,inactive
NLK (nemo like kinase),1,-0.0949,-0.0977,0.0397,inactive
NLK (nemo like kinase),2,-0.0169,-0.175,0.0266,inactive
NLK (nemo like kinase),3,-0.254,-0.169,-0.177,inactive
NLK (nemo like kinase),4,-0.159,-0.0743,0.0251,inactive
BMPR2 (bone morphogenetic protein receptor type 2),1,-0.0865,-0.0924,-0.171,inactive
BMPR2 (bone morphogenetic protein receptor type 2),2,-0.117,-0.0776,-0.122,inactive
BMPR2 (bone morphogenetic protein receptor type 2),3,-0.244,-0.133,-0.139,inactive
BMPR2 (bone morphogenetic protein receptor type 2),4,-0.166,-0.0479,-0.138,inactive

Entries listed so far whose gene name starts with B or b (4):
target gene,reagent no.,synergy score with BYL719,synergy score with cetuximab,synergy score with trametinib,Outcome
BMPR2 (bone morphogenetic protein receptor type 2),1,-0.0865,-0.0924,-0.171,inactive
BMPR2 (bone morphogenetic protein receptor type 2),2,-0.117,-0.0776,-0.122,inactive
BMPR2 (bone morphogenetic protein receptor type 2),3,-0.244,-0.133,-0.139,inactive
BMPR2 (bone morphogenetic protein receptor type 2),4,-0.166,-0.0479,-0.138,inactive
